{"source": "patent EP4669352A1", "binders": {"B1": {"name": "EV42 (antibody, V domains shown)", "VH": "EVQLVESGPRLVKPSETLSLTCAVSGASITSNYWSWIRQPPGKGLEWIGRTPGSSGSTDYNPSLKSRVTISTDTSKNQFSLKLTSVTAADTAVYFCARRYTDSYYLYYFDFWSQGVLVTVSS", "VL": "QSALTQPPSVSGSPGQSVTISCTGTNSDIGSYKYVSWYQKHPGKAPKLVIYDVSQRPSGVSDRFSGSKSGNTASLTISGLQAEDEADYYCSSYAGINTFNVFGSGTKLTIL"}}, "key": {"[1]": {"biological_target": "VACV A33 recombinant protein (vaccinia virus) (UniProt P68616)", "test": "restated from ELISA/BLI"}, "[2]": {"biological_target": "VACV A33 recombinant protein (vaccinia virus) (UniProt P68616)", "test": "ELISA on recombinant protein"}}, "note": "These are yes or no findings as the source states them, for the method shown. Some entries that bind do so weakly or less than the wild type."}
{"binder": "B1", "values": [{"measurement": "binding", "setting": "[1]", "result": "binds"}, {"measurement": "binding", "setting": "[2]", "result": "binds"}]}
